PubChem BioAssay AID1259425, University of Nebraska Medical Center, 2018
Here is one part, drawn at random, of about 14,000 reagents tested. A reagent listed more than once was tested more than once; the source does not tell the runs apart. Reagent sequences are not shown. Not stated in the record: the time to read-out.

Screen: 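Compare each knockdown with KSR1 silencing using changes in marker transcripts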 (primary screen)
Cell system: HCT116 human colon cancer cells
Reagent: siRNA pool against human genes, 50 nM siRNA
Measurement: 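After 50 nM siRNA pool, branched-DNA assay measures six marker transcripts per well, minus blank, normalised to the geometric mean of two housekeeping transcripts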
Direction: BNIP3L mRNA: higher = more BNIP3L transcript after knockdown; NDRG1 mRNA: higher = more NDRG1 transcript after knockdown; BNIP3 mRNA: higher = more BNIP3 transcript after knockdown; ALDOC mRNA: higher = more ALDOC transcript after knockdown; ACSL5 mRNA: higher = more ACSL5 transcript after knockdown

no.	Target gene	BNIP3L mRNA, set 1	NDRG1 mRNA, set 1	BNIP3 mRNA, set 1	ALDOC mRNA, set 1	ACSL5 mRNA, set 1
1	ADAM18	0.151	0.188	0.302	0.0227	0.262
2	MAK16	0.175	0.146	0.317	0.0126	0.284
3	INSL6	0.0567	0.132	0.189	0.0221	0.117
4	SPAG6	0.115	0.493	0.406	0.0171	0.239
5	SMOC1	0.109	0.24	0.25	0.00997	0.136
6	TRPM6	0.104	0.0719	0.313	0.012	0.107
7	DCAF5	0.13	0.141	0.241	0.0172	0.0898
8	COL14A1	0.0736	0.206	0.217	0.0473	0.123
9	IGSF9	0.178	0.173	0.317	0.0143	0.138
10	MSL2	1.03	4.94	3.24	0.818	0.328
11	SSTR3	0.163	0.152	0.277	0.0107	0.103
12	CENPM	0.114	0.13	0.29	0.0443	0.226
13	PLCG1	0.0566	0.0669	0.256	0.012	0.0827
14	ADK	0.121	0.141	0.161	0.0056	0.229
15	FABP7	0.169	0.134	0.374	0.0485	0.0863
16	PPFIA1	0.102	1.34	0.222	0.0438	0.211
17	EML4	0.145	0.14	0.254	0.0316	0.0767
18	PLEKHA8P1	0.0882	0.09	0.38	0.0229	0.156
19	TCP10L3	0.171	0.719	0.358	0.0439	0.488

Continued; the last 5 above are carried over.
no.	Target gene	BNIP3L mRNA, set 1	NDRG1 mRNA, set 1	BNIP3 mRNA, set 1	ALDOC mRNA, set 1	ACSL5 mRNA, set 1
15	FABP7	0.169	0.134	0.374	0.0485	0.0863
16	PPFIA1	0.102	1.34	0.222	0.0438	0.211
17	EML4	0.145	0.14	0.254	0.0316	0.0767
18	PLEKHA8P1	0.0882	0.09	0.38	0.0229	0.156
19	TCP10L3	0.171	0.719	0.358	0.0439	0.488
20	OBSL1	0.143	0.0398	0.314	0.0378	0.129
21	PCM1	0.0551	0.225	0.297	0.0355	0.164
22	CHDH	0.111	0.0667	0.387	0.011	0.225
23	FAM174C	0.186	0.381	0.409	0.0563	0.245
24	ADRA1B	0.152	0.265	0.306	0.00819	0.342
25	ADRA1B	0.143	0.237	0.294	0.0441	0.181
26	GTF3C1	0.13	0.216	0.386	0.0225	0.248
27	NLK	0.186	0.0769	0.366	0.011	0.354
28	ACOT7	0.0788	0.105	0.276	0.0523	0.131
29	DCHS1	0.121	0.0505	0.254	0.0149	0.0954
30	MC4R	0.252	0.294	0.492	0.0484	0.278
31	S100A2	0.101	0.0291	0.306	0.0228	0.0914
32	ADGRB3	0.0736	0.205	0.287	0.0271	0.106
33	VSX1	0.123	0.153	0.335	0.0111	0.285
34	SERPINI2	0.0801	0.165	0.169	0.0434	0.246
35	GSS	0.118	0.376	0.328	0.0459	0.277
36	LAMP2	0.088	0.0632	0.311	0.0328	0.154
37	PPP2R2B	0.0536	0.189	0.261	0.0207	0.198
38	CACNG1	0.138	0.361	0.358	0.0668	0.244
39	KNTC1	0.0566	0.131	0.281	0.0131	0.236
40	LINC00472	0.0716	0.329	0.247	0.0321	0.16
41	STK16	0.0926	0.207	0.179	0.0249	0.131
42	HSP90AA1	0.134	0.0777	0.327	0.0138	0.251
43	DMRTC2	0.0798	0.317	0.279	0.0102	0.281
44	EWSR1	0.09	0.153	0.348	0.0187	0.167
45	MIOX	0.0777	0.132	0.343	0.016	0.0512
46	RNASEH2B	0.113	0.225	0.359	0.0177	0.209
47	ENTPD2	0.0723	0.307	0.319	0.0675	0.161
48	RPL32	0.135	0.156	0.267	0.0159	0.0923
49	ADRA1D	0.176	0.204	0.208	0.0208	0.183
50	LRIG1	0.107	0.115	0.223	0.00818	0.0843
